No constants are given. Whether binding was seen depends on the method and setting. Binding seen in cells or lysates may run through a third protein. Some results given as binding are weak or reduced against the parent protein; the word gives no strength. Values belong to the binder of their own block, whether it stands above or below them.
Experiments:
[1] = target: T1, mesoderm-specific transcript (MEST) (UniProt Q5EB52); experiment: co-IP; ESCC cell lysates, protein A/G Sepharose beads, Western blot; also done in the absence or presence of inhibitors (G699-0288 markedly reduced the interaction, Fig. 7g)
T1 sequence: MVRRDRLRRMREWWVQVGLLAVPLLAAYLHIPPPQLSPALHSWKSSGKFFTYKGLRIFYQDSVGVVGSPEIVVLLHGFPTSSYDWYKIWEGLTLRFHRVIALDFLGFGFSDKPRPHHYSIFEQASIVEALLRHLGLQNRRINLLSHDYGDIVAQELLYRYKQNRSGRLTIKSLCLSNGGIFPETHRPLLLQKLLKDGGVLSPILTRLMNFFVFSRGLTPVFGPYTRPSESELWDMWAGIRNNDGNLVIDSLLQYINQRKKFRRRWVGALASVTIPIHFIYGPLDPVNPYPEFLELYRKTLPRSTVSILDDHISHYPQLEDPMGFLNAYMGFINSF

[2] = target: T2, wild-type MEST (MEST-expressing plasmid) (UniProt Q5EB52); experiment: co-IP; MEST and PURA plasmids (wild type or mutant) cotransfected into ESCC cells (KYSE150-Luc)
T2 sequence: T1 sequence

binding [1]: binds
B1: purine rich element binding protein A (PURA) (protein, UniProt Q00577 1-322)
chain: MADRDSGSEQGGAALGSGGSLGHPGSGSGSGGGGGGGGGGGGSGGGGGGAPGGLQHETQELASKRVDIQNKRFYLDVKQNAKGRFLKIAEVGAGGNKSRLTLSMSVAVEFRDYLGDFIEHYAQLGPSQPPDLAQAQDEPRRALKSEFLVRENRKYYMDLKENQRGRFLRIRQTVNRGPGLGSTQGQTIALPAQGLIEFRDALAKLIDDYGVEEEPAELPEGTSLTVDNKRFFFDVGSNKYGVFMRVSEVKPTYRNSITVPYKVWAKFGHTFCKYSEEMKKIQEKQREKRAACEQLHQQQQQQQEETAAATLLLQGEEEGEED

binding [2]: binds
B2: wild-type (WT) PURA (PURA-expressing plasmid) (protein, UniProt Q00577 1-322)
chain: B1 chain
